According to PubChem BioAssay AID2685 (National Center for Advancing Translational Sciences (NCATS), 2010):
The list shows a part of the results. Shown are side measurements of this screen, not its main read-out; they come without a call. Compounds called inactive in the main read-out are mostly missing here. The note in brackets gives the kind of curve behind each potency; many fits are weak.

Test: qHTS Assay for Lipid Storage Modulators in Drosophila S3 Cells;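 for cell number change: cells counted by Cell Tracker Red CMTPX staining in the red channel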
Conditions: BODIPY lipid droplet fluorescence, 18-24 h; for cell number change: measured here: cell count max response, cells fed with added oleic acid
How it was run: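 Drosophila S3 cells got compounds at several concentrations plus oleic acid (400 uM solution). Laser-scanning cytometry with 488 nm excitation read lipid droplets at 500-530 nm and cells at 575-640 nm. Percent activity was relative to 20 uM Triacsin C.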

[1] = measured here: cell number channel AC50, cells fed with added oleic acid
[2] = measured here: lipid fluorescence (Fed channel) AC50, cells fed with added oleic acid

| Structure (SMILES) | cell number change [%] | AC50 [1] | AC50 [2] |
| --- | --- | --- | --- |
| Cc1ccc(Oc2nc(CN3CCOCC3)nc3sc4c(c23)CCC(C)C4)cc1 (configuration not stated) | -43.5 | 23.1 µM [falling, single point] | 18.4 µM [falling, single point] |
| CCN1CCN(c2ccc(NC(=O)c3ccco3)cc2Cl)CC1 | 13.5 | – | 6.51 µM [falling, single point] |
| CCOc1ccc2[nH]c(=O)c(C(c3nnnn3Cc3ccco3)N3CCN(C)CC3)cc2c1 (configuration not stated) | -61 | 7.31 µM [falling, partial curve] | 4.11 µM [falling, partial curve] |
| OCCN1CCN(C(c2cccs2)c2ccc3cccnc3c2O)CC1 (configuration not stated) | -23.3 | – | 1.16 µM [falling, full curve] |
| COc1ccc(-c2ccc(S(=O)(=O)N3CCCC3)cc2)cc1 | 3.28 | – | – |
| COc1ccc(CCC(=O)NCCc2ccc(OC)c(OC)c2)cc1 | 1.38 | – | 7.31 µM [falling, partial curve, poor fit] |
| O=S(=O)(NCC1OCCc2ccccc21)c1ccc(S(=O)(=O)N2CCOCC2)cc1 (configuration not stated) | 7.88 | 0.651 µM [falling, single point] | – |
| CCC(Sc1ccccc1C(=O)O)C(=O)O (configuration not stated) | -29.5 | – | 29.1 µM [falling, single point] |
| COc1ccc(/C=N/NC(=O)c2cnccn2)cc1O | 111 | 18.4 µM [rising, single point] | 0.0206 µM [falling, full curve, poor fit] |
| O=C(Cc1cccs1)NCCCc1ccccc1 | -18.4 | – | 2.59 µM [falling, partial curve] |
| CC(C)c1nc(N2CCN(C(=O)c3ccco3)CC2)c2c3c(sc2n1)CCCC3 | – | – | 6.51 µM [rising, single point] |
| COc1cc(/C=N/N=C(N)N)ccc1OCc1ccccc1Cl | -64.6 | – | 1.64 µM [rising, partial curve] |
| O=C(Nc1cccc([N+](=O)[O-])c1)c1cnccn1 | 4.9 | – | 0.146 µM [rising, full curve, poor fit] |
| COC(=O)[C@@]12CCCCN1[C@H](c1ccc(-c3ccc(OC)cc3)cc1)[C@H]1C(=O)N(C)C(=O)[C@H]12 | 26.5 | – | 0.00517 µM [rising, full curve, poor fit] |
| CN(CC(=O)Nc1cccc(S(=O)(=O)NC2=NCCC2)c1)Cc1ccccc1Cl | -13.2 | 1.84 µM [rising, partial curve, poor fit] | 2.31 µM [rising, partial curve] |
| Cc1ccccc1N/C(=N/S(=O)(=O)c1ccccc1)c1ccc(F)cc1 | -18.5 | – | – |
| CC(=O)Nc1ccc(C(=O)COC(=O)C2CC2)c(F)c1 | – | 0.651 µM [rising, single point] | – |
| COc1ccc([C@@H](OC)[C@@]2(Cc3ccc(O)cc3)N=C(N)N(C)C2=O)cc1 | 20.7 | – | 25.9 µM [rising, single point] |
| O=c1cc(C(F)(F)F)[nH]c(=O)n1C1CCCCC1 | -24.2 | – | – |
| COc1ccc(N2CCN(Cc3nc(N)nc(Nc4ccc(C)c(Cl)c4)n3)CC2)cc1 | -34.4 | – | – |

Taken from above:
Value for `COc1ccc(/C=N/NC(=O)c2cnccn2)cc1O` under AC50 [1]: 18.4 µM [rising, single point]
Value for `CC(C)c1nc(N2CCN(C(=O)c3ccco3)CC2)c2c3c(sc2n1)CCCC3` under AC50 [2]: 6.51 µM [rising, single point]

Additional structures:

| Structure (SMILES) | cell number change [%] | AC50 [1] | AC50 [2] |
| --- | --- | --- | --- |
| c1ccc(C2CCC(N3CCN(c4ccccc4)CC3)CC2)cc1 (configuration not stated) | -25.6 | – | 29.1 µM [falling, single point] |
| O=C(NCCN1C(=O)S/C(=C\c2cccnc2)C1=O)c1cc(S(=O)(=O)N2CCOCC2)ccc1F | -25.4 | – | 25.9 µM [falling, single point] |
| COc1cccc(C(=O)NCC(c2cccs2)N2CCc3ccccc32)c1 (configuration not stated) | – | 0.651 µM [rising, full curve, poor fit] | – |
| O=C(Nc1ccc2c(c1)OCO2)c1cccs1 | -13.2 | – | 0.082 µM [rising, full curve, poor fit] |
| Cc1ccc(C)c(C(=O)CCC(=O)N2CCN(c3ncccn3)CC2)c1 | 17.2 | – | 0.146 µM [rising, full curve, poor fit] |
| O=C(O)c1cc(=O)c2ccccc2o1 | 27.2 | – | 6.51 µM [rising, single point] |
| Cc1[nH]nc2c1C(c1ccc(-c3ccc(Cl)cc3)o1)C(C#N)=C(N)O2 (configuration not stated) | – | – | 16.4 µM [falling, single point] |
| C=CCSc1nnc2c(n1)[nH]c1c(C)cccc12 | -14 | – | 1.46 µM [rising, full curve, poor fit] |
| CCOc1ccc(-c2cc(CCCC(=O)Nc3cc(OC)ccc3OC)no2)cc1 | -8.65 | – | 20.6 µM [falling, single point] |
| O=C(COc1ccc(F)cc1)N(c1ccccn1)C1CCCCC1 | -9.47 | – | 16.4 µM [falling, single point] |
| Cc1ccc(-c2nc(NC(=O)CSc3cc(C)c4ccccc4n3)ns2)cc1 | 9.05 | – | 1.64 µM [rising, full curve, poor fit] |
| CCOP(=O)(OCC)/C(C#N)=C/c1c[nH]c2ccccc12 | 6.7 | 6.51 µM [falling, single point] | 6.51 µM [falling, single point] |
| O=C1CN(C(=O)c2cc([N+](=O)[O-])ccc2Cl)C(c2ccc(F)cc2)c2cc(F)ccc2N1 (configuration not stated) | -43.5 | 0.291 µM [falling, full curve] | 1.64 µM [falling, partial curve] |
| CCCCN(C)C(=O)c1cc2cc([N+](=O)[O-])cc(OC)c2oc1=O | 36.6 | 29.1 µM [rising, single point] | – |
| Cc1cc(=O)oc2cc(OCC(=O)OC(C)C(=O)NC3CCCC3)ccc12 (configuration not stated) | -53.6 | 29.1 µM [falling, single point] | 6.51 µM [falling, partial curve] |
| CCOC(=O)C(=NCCCN(C)C)NNc1cc(C(F)(F)F)ccc1Cl | 22.2 | – | 5.17 µM [rising, full curve, poor fit] |
| CN(Cc1nc2ccccc2c(=O)[nH]1)C(=O)c1ccccc1OCc1ccc(Cl)cc1 | 27.3 | – | 32.6 µM [rising, partial curve] |
| COc1cc(OC)cc(-c2c(-c3cccs3)c3cc(-c4ccc(OC)cc4F)ccc3n2C)c1 | -3.16 | 1.16 µM [rising, single point] | – |
| Cc1cc2oc(=O)cc(CN3CCC(C)CC3)c2cc1Cl | -16.1 | – | 2.31 µM [falling, partial curve] |
| Cc1cccc(NC(=O)C(C)C(=O)c2ccccc2)c1 (configuration not stated) | -22.5 | – | – |

Entries above that contain fluorine (eight):

| Structure (SMILES) | cell number change [%] | AC50 [1] | AC50 [2] |
| --- | --- | --- | --- |
| Cc1ccccc1N/C(=N/S(=O)(=O)c1ccccc1)c1ccc(F)cc1 | -18.5 | – | – |
| CC(=O)Nc1ccc(C(=O)COC(=O)C2CC2)c(F)c1 | – | 0.651 µM [rising, single point] | – |
| O=c1cc(C(F)(F)F)[nH]c(=O)n1C1CCCCC1 | -24.2 | – | – |
| O=C(NCCN1C(=O)S/C(=C\c2cccnc2)C1=O)c1cc(S(=O)(=O)N2CCOCC2)ccc1F | -25.4 | – | 25.9 µM [falling, single point] |
| O=C(COc1ccc(F)cc1)N(c1ccccn1)C1CCCCC1 | -9.47 | – | 16.4 µM [falling, single point] |
| O=C1CN(C(=O)c2cc([N+](=O)[O-])ccc2Cl)C(c2ccc(F)cc2)c2cc(F)ccc2N1 (configuration not stated) | -43.5 | 0.291 µM [falling, full curve] | 1.64 µM [falling, partial curve] |
| CCOC(=O)C(=NCCCN(C)C)NNc1cc(C(F)(F)F)ccc1Cl | 22.2 | – | 5.17 µM [rising, full curve, poor fit] |
| COc1cc(OC)cc(-c2c(-c3cccs3)c3cc(-c4ccc(OC)cc4F)ccc3n2C)c1 | -3.16 | 1.16 µM [rising, single point] | – |

Next structures.

| Structure (SMILES) | cell number change [%] | AC50 [1] | AC50 [2] |
| --- | --- | --- | --- |
| COc1ccc2c(c1)[C@H]1[C@H](CO2)[C@H](c2ccccc2)[C@]2(C)C(=O)N[C@@H](C)C(=O)N12 | 18.3 | 0.164 µM [rising, full curve, poor fit] | 0.116 µM [rising, full curve, poor fit] |
| Cc1ccc(C2CC(=O)Nc3sc(C(N)=O)c(N)c32)cc1 (configuration not stated) | -8.16 | – | – |
| CCOCC(=O)Nc1cc(C(=O)Nc2cccc(C)c2C)ccc1Cl | 95.1 | 29.1 µM [rising, single point] | – |
| COc1ccc(S(=O)(=O)N2CCC(C(=O)Nc3cccc(Cl)c3)CC2)cc1OC | 13.6 | – | – |
| COc1ccc(S(=O)(=O)N2CCC(C(=O)NCc3ccccn3)CC2)cc1OC | 14.3 | 6.51 µM [rising, single point] | – |
| COCC(C)N=Cc1c(O)[nH]c2ccccc12 (configuration not stated) | – | – | 0.461 µM [rising, partial curve, poor fit] |
| CC(C)CCNC(=O)c1ccccc1SCC(=O)NC1CCCCCCC1 | -11.1 | – | 0.326 µM [falling, full curve, poor fit] |
| CCN(CC(=O)Nc1ccc(NC(C)=O)cc1)C(=O)c1c(-c2c(F)cccc2Cl)noc1C | 16.2 | – | – |
| CCCCc1ccc(S(=O)(=O)Nc2cc(C)on2)cc1 | – | – | 0.58 µM [falling, single point] |
| COc1ccc(/C=C/C(=O)NC(=S)NN2CCCCC2c2cccnc2)cc1 (configuration not stated) | -6.17 | – | 0.366 µM [rising, single point] |
| CCOc1ccc(N)cc1OC | 19.4 | 1.16 µM [rising, single point] | 1.3 µM [rising, full curve] |
| CN(CC(=O)Nc1ccc(F)cc1)C(=O)COC(=O)CCN1C(=O)C2CC=CCC2C1=O (configuration not stated) | – | – | 16.4 µM [rising, partial curve, poor fit] |
| C[C@@H](C(O)c1ccccc1)N(C)C(=O)CCc1ccccc1 (some centres not stated) | 28.5 | – | 29.1 µM [rising, single point] |
| CCN(CC(=O)NCc1ccc(F)cc1)Cc1nc2ccccc2c(=O)[nH]1 | -0.628 | – | 3.26 µM [rising, partial curve, poor fit] |
| CCCCN(CCCC)C(=O)/C=C/c1cccc([N+](=O)[O-])c1 | – | – | 3.66 µM [rising, partial curve] |
| CC(=O)Nc1ccc(NC(=O)C2CCN(C(=O)C3CC(=O)N(c4ccc(C)cc4)C3)CC2)cc1 (configuration not stated) | 33.3 | 2.06 µM [rising, partial curve, poor fit] | – |
| O=C1CCN(C(=O)Nc2ccccc2)N1 | -11 | – | 0.82 µM [falling, full curve, poor fit] |
| CCN1CCc2c(sc(NC(=O)c3ccc(S(=O)(=O)N(C)c4ccccc4)cc3)c2C(=O)NC)C1 | -28 | 1.3 µM [falling, full curve] | 0.82 µM [falling, full curve, poor fit] |
| CC(=O)c1ccc(NS(=O)(=O)c2ccc3c(c2)N(C)CCO3)cc1 | -0.895 | – | 29.1 µM [rising, single point] |
